Measured values: patent US8278048

System: BfaI restriction endonuclease
Assay: enzyme reaction in vitro
Conditions: 5'-thiol, 3'-biotin on SEQ:1; 37 C, 2 h, hybrid immobilised on streptavidin plate; HRP release depends on target concentration (detectable about 1 nM) and on BfaI amount; enzyme source form not stated; purified recombinant protein; label: 5'-thiol-HRP and 3'-biotin on SEQ:1

Sequence: GGTAGTGCGAAATGCCATTGCTAGTTGTTT / AAACAACTAGCAATGGCATTT [HRP-probe:target hybrid]
- activity on this sequence: active

The exact form of at least one protein or probe is not confirmed.
